Not every detail of the peptide structures is certain; ends, links or a residue may be inferred. Residues, ends and D or L forms follow the SMILES beside them.
Legend:
wAMD mouse model [1] = experiment: Laser-induced CNV model at equimolar concentration, FFA examination of CNV leakage (Example 6); assay type: in vivo, C57BL/6J mice; settings: eye dropping 5 times a day, 5 µL, equimolar (HM-1 8.76 mg/mL; AJ007 20 mg/mL), FFA on day 3
wAMD mouse model [2] = experiment: Laser-induced CNV model at equimolar concentration, FITC-dextran flat-mount staining of CNV area (Example 6); assay type: in vivo, C57BL/6J mice; settings: eye dropping 5 times a day for 7 days, equimolar (HM-1 8.76 mg/mL; AJ007 20 mg/mL), day 7

SMILES: C[C@H](NC(=O)CNC(=O)[C@H](CCCNC(=N)N)NC(=O)[C@H](CCCNC(=N)N)NC(=O)[C@H](CCCNC(=N)N)NC(=O)[C@H](CCCNC(=N)N)NC(=O)[C@H](CCC(N)=O)NC(=O)[C@H](CCCNC(=N)N)NC(=O)[C@H](CCCNC(=N)N)NC(=O)[C@H](CCCCN)NC(=O)[C@H](CCCCN)NC(=O)[C@H](CCCNC(=N)N)NC(=O)CNC(=O)[C@@H](N)Cc1ccc(O)cc1)C(=O)N[C@@H](CC(=O)O)C(=O)N[C@@H](CCCNC(=N)N)C(=O)N[C@@H](C)C(=O)NCC(=O)NCC(=O)NCC(=O)NCC(=O)N[C@@H](CCCNC(=N)N)C(=O)NCC(=O)N[C@@H](CC(=O)O)C(=O)O [AJ007] (H-YGRKKRRQRRRRGADRAGGGGRGD-OH)
- laser-induced CNV leakage (FFA) (wAMD mouse model [1]): cannot significantly improve laser-induced CNV leakage
- laser-induced CNV area (FITC-dextran flat-mount staining) (wAMD mouse model [2]): cannot reduce the laser-induced CNV area

Source: patent EP4725551A1, “FUSION POLYPEPTIDE AJ007 AND USE THEREOF” (Nanjing Anji Biotechnology Co., Ltd., priority 2023, dated 2026)
